Test results taken from publication PMC10385664, “Projection of Target Drug Particle Size in Oral Formulations Using the Refined Developability Classification System (rDCS)” (Pharmaceutics, 2023).

Assay: rDCS dissolution rate analysis (kdiss vs kperm) by Rosenberger et al.
Conditions: Excel template
Source text: Rosenberger et al. published an equation for kdiss based on the intrinsic dissolution rate (IDR) rather than CS (Equation (9)). Applying the hparticle assumption for larger particles with r0 ≥ 30 µm (hparticle = 30 µm) results in Equation (10). (9) kdiss=kIDR·IDR=3·hdisk/r0^2·ρ·IDR(r0<30 µm, hparticle=r0) (10) kdiss=kIDR·IDR=3·hdisk/r0·hparticle·ρ·IDR(r0≥30 µm, hparticle=30 µm)
In these equations kIDR is the IDR rate constant, which accounts for the solvent kinematic viscosity, rotational speed of the compressed disk, diffusion coefficient, particle size and API density. Therefore, kIDR corrects for differences in experimental conditions that influence the measured IDR value. The ABL thickness of the rotating disk (hdisk) can be estimated according to Equation (11):(11) hdisk=4.98·ν^1/6·D^1/3·RPM^−1/2 where ν is the solvent kinematic viscosity and the stirring rate is expressed as revolutions per minute (RPM). When kdiss is based on the IDR, two modified Dn equations result (Equations (12) and (13)):(12) Dn=3·hdisk/r0^2·ρ·IDR·Tsi(r0<30 µm, hparticle=r0) (13) Dn=3·hdisk/r0·hparticle·ρ·IDR·Tsi(r0≥30 µm, hparticle=30 µm)
The rDCS dissolution rate analysis was conducted according to Rosenberger et al.. For this, kdiss based on the IDR for a standard particle size of 100 µm was calculated (Equation (15)) and compared to kperm (Equation (10)). […]

In the case of C[C@@H](c1ncncc1F)[C@](O)(Cn1cncn1)c1ccc(F)cc1F [Voriconazole, voriconazole], the “kIDR for r = 100 µm” value is reported as 0.0892 mg/cm2.
